PubChem BioAssay AID1259254, NCATS – 2017
Shown is a random part of about 59,000 reagents tested. About 1,550 of them (2.6%) were called active. 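G2 share is only a proxy for re-replication; each gene was hit by three separate siRNAs, and active genes were retested.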 The numbers tell different reagents against one gene apart. Further read-outs or replicates are left out here. Reagent sequences are not shown. Not stated in the record: the amount of reagent.

Assay: 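Gene knock-downs that lead to re-replication, shown by excess G2 DNA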 (primary screen)
Cells: human HCT116 colorectal cancer cells
Knock-down reagent: single siRNA against human genes
Time to read-out: 3 days
Measurement: 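Imaged Hoechst DNA stain sorts each cell into a cycle phase by DNA amount; per plate, G2 fraction set to 0% for non-targeting and 100% for GMNN siRNA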
Reading the numbers: G2 robust z-score: higher = more G2 cells, more excess DNA replication
Active means: 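An siRNA counts as active if its G2 robust z-score lies at least 5 MADs above the screen median; here such calls match roughly 38% of GMNN control or more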

gene knocked down,reagent,G2 robust z-score,Call
HMGN1P38,1,0.306,inactive
HMGN1P38,2,1.7,inactive
HMGN1P38,3,0.0294,inactive
ELL3,1,-0.785,inactive
ELL3,2,-0.896,inactive
ELL3,3,-0.887,inactive
LOC402279,1,0.371,inactive
LOC402279,2,0.406,inactive
LOC402279,3,-0.296,inactive
SLC7A14,1,-0.23,inactive
SLC7A14,2,1.26,inactive
SLC7A14,3,-0.449,inactive
SLC7A14,4,-1.25,inactive
SLC7A14,5,0.323,inactive
SLC7A14,6,-0.189,inactive
GRTP1,1,-0.91,inactive
GRTP1,2,-0.186,inactive
GRTP1,3,0.205,inactive
MGAT5,1,0.97,inactive
MGAT5,2,0.21,inactive
MGAT5,3,-1.11,inactive
ASB13,1,-1.55,inactive
ASB13,2,0.127,inactive
ASB13,3,1.41,inactive
FXYD4,1,-0.143,inactive
FXYD4,2,1.39,inactive
FXYD4,3,1.41,inactive
MEAF6,1,2.3,inactive
MEAF6,2,0.0711,inactive
MEAF6,3,0.624,inactive
OR4K15,1,-0.173,inactive
OR4K15,2,1.94,inactive
OR4K15,3,0.765,inactive
MAP6,1,0.223,inactive
MAP6,2,-0.474,inactive
MAP6,3,2.3,inactive
MRGPRD,1,-0.0861,inactive
MRGPRD,2,-1.04,inactive
MRGPRD,3,2.16,inactive
RBX1,1,5.24,active
RBX1,2,2.65,inactive
RBX1,3,8.33,active

Continued, starting with the last 2 of the part before.
gene knocked down,reagent,G2 robust z-score,Call
RBX1,2,2.65,inactive
RBX1,3,8.33,active
RALGPS2,1,4.74,inactive
RALGPS2,2,4.77,inactive
RALGPS2,3,2.1,inactive
OTX1,1,2.19,inactive
OTX1,2,-0.308,inactive
OTX1,3,-0.0129,inactive
TRNT1,1,1.36,inactive
TRNT1,2,-0.654,inactive
TRNT1,3,4.09,inactive
PCSK1,1,0.346,inactive
PCSK1,2,-0.102,inactive
PCSK1,3,1.62,inactive
CPXM1,1,0.154,inactive
CPXM1,2,-0.2,inactive
CPXM1,3,-0.791,inactive
CAT,1,-1.68,inactive
CAT,2,0.995,inactive
CAT,3,1.27,inactive
ZDHHC6,1,0.794,inactive
ZDHHC6,2,-0.55,inactive
ZDHHC6,3,-1.04,inactive
IMPDH2,1,-1.68,inactive
IMPDH2,2,2.4,inactive
IMPDH2,3,2.26,inactive
HAS2,1,1.41,inactive
HAS2,2,-0.597,inactive
HAS2,3,-0.203,inactive
